# Several values for one entry are separate records, joined by “and”; a condition that tells them apart may be missing. Equal values may be shown once. In all, about 580,000 compounds went through this assay and about 6,100 (1.1%) were called active. This list was built around the results that the source calls inconclusive (neither active nor inactive); the mix of calls is not that of the screen. The call rests on the fitted dose curve; in most records, active means well fitted inhibition curve with a large enough effect; inconclusive means small, poorly fitted or top-dose-only effect, or another doubt; inactive means no such curve, though single readings can be large or run the other way. A potency beside an inconclusive call is a rough fit, not a confirmed value.
# The chains behind the UniProt entries cited, without tags or fusion partners. Where a name states a change or a piece, a line headed by the entry shows the natural chain unless it says otherwise.
# UniProt P18054: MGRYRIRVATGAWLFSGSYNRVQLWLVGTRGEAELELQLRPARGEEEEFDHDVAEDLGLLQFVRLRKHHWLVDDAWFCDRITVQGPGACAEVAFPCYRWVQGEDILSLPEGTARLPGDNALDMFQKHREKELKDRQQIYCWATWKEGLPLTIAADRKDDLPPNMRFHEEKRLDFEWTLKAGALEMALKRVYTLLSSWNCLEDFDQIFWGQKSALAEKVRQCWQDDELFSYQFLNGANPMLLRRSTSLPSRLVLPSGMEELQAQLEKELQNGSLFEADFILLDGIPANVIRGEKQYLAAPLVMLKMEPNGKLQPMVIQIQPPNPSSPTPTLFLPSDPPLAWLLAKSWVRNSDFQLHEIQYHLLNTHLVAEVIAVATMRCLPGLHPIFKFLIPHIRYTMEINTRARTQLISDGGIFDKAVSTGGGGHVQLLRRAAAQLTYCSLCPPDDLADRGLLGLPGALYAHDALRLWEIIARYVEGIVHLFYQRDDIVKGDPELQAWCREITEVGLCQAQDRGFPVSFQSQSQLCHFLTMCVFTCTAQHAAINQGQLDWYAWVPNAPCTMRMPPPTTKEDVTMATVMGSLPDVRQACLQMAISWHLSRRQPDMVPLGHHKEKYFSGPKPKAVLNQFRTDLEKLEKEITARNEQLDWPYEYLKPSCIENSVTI
# Molecular target: Polyunsaturated fatty acid lipoxygenase ALOX12 (Homo sapiens) (UniProt P18054)
# Experiment: Primary qHTS assay for inhibitors of human arachidonate 12S-lipoxygenase (ALOX12): Round 2
# Details: purified 12hLO, xylenol orange hydroperoxide absorbance; activity change, negative = inhibition: at 108 µM (top of the series) unless noted
# Procedure, shortened: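 Purified human 12hLO (150 nM final) in 25 mM Hepes, 0.01% Triton X-100, pH 7.0 was preincubated 15 min at room temperature with compound. Then 40 uM arachidonic acid was added, 30 min. Hydroperoxide was read by Fe-XO absorbance ratio 573/405 nm.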
# On the % scale 0 is the no-effect control and ±100 the full control effect; potency means the concentration at half of the fitted maximal effect.
Compound,Potency,"activity change, negative = inhibition"
O=C(c1ccc2c3c(cccc13)C(=O)N(O)C2=O)N1CCCCC1,"inconclusive: 31.6 µM [inhibitor, single point]",–
C=CCN(C(=O)CNC(=O)c1ccco1)C(C(=O)NC1CCCCC1)c1ccc(F)cc1 (centres undefined),"inconclusive: 50.1 µM [inhibitor, partial curve, poor fit]",–
COc1cc(F)ccc1-c1csc(C(C)(O)c2ccc(F)c(F)c2)n1 (centres undefined),"inconclusive: 39.8 µM [inhibitor, partial curve, poor fit]",–
N#C/C(=C\c1c(Oc2ccc(Br)cc2)nc2ccccn2c1=O)c1nc2ccccc2s1,"inconclusive: 50.1 µM [inhibitor, partial curve, poor fit]",–
COc1ccc(C(=O)N2CCN(c3oc(-c4cccs4)nc3C#N)CC2)cc1,–,inactive: -0.378%
CC(C)(C)c1cc(C(F)(F)F)n2ncc(-c3ccccc3)c2n1,"inconclusive: 0.0794 µM [inhibitor, full curve, poor fit]",–
CCc1ccc(CCC(=O)N2CCN(S(=O)(=O)c3ccc(Br)cc3)CC2)cc1,"inconclusive: 79.4 µM [inhibitor, partial curve, poor fit]",–
O=C(C[C@H]1NC(=O)c2ccccc2NC1=O)Nc1nnc(C2CCCO2)s1 (some centres undefined),–,inactive: 14.8%
CCCCCC1CCC(c2n[nH]c(=S)n2C)CC1 (centres undefined),"inconclusive: 12.6 µM [inhibitor, full curve, poor fit]",–
COc1cc(C2c3c(n[nH]c3C)C(=O)N2c2ccc(Br)cc2)ccc1O (centres undefined),"inconclusive: 28.2 µM [inhibitor, full curve, poor fit] and inconclusive: 44.7 µM [inhibitor, partial curve, poor fit]",–
CCCCN1CCc2nc(N3CCN(C)CC3)ncc2C1,"inconclusive: 50.1 µM [inhibitor, partial curve, poor fit]",–
CCOC(=O)C(NC(=O)c1ccccc1)=C(C)C,–,inactive: 9.54%
N#Cc1ccc(C(=O)OCC(=O)NC(=O)NCc2ccccc2)cc1,"inconclusive: 56.2 µM [inhibitor, partial curve, poor fit]",–
CN(Cc1ccccc1)c1nc2c(c(=O)n(C)c(=O)n2C)n1CCSc1ncccn1,–,inactive: -1.17%
COc1ccc(CCN2CCC(CNC(=O)c3cnn(-c4ccccc4)c3C3CCN(C(=O)OC(C)(C)C)CC3)CC2)cc1,"inconclusive: 3.98 µM [inhibitor, full curve, poor fit]",–
FC(F)(F)c1ccccc1-c1nccc(NCc2ccccc2)n1,"inconclusive: 56.2 µM [inhibitor, partial curve, poor fit]",–
Cc1ccc(S(=O)(=O)n2nc(-c3ccc(Cl)cc3)nc2NCc2ccco2)cc1,active: 12.6 µM,–
COc1ccc(C)cc1NC(=O)Cn1cc(S(=O)(=O)Cc2ccccc2Cl)c2ccccc21,"inconclusive: 112 µM [inhibitor, partial curve, poor fit]",–
CSCCC(C(=O)NCc1cccs1)N1C(=O)c2ccccc2C1=O (centres undefined),–,inactive: 12%
Cc1cc(C(=O)NCc2ccc(N(C)C)nc2)on1,–,inactive: 8.05%

# A second format for some results above:
Compound | Potency | activity change, negative = inhibition
COc1ccc(CCN2CCC(CNC(=O)c3cnn(-c4ccccc4)c3C3CCN(C(=O)OC(C)(C)C)CC3)CC2)cc1 | inconclusive: 3.98 µM [inhibitor, full curve, poor fit] | –
FC(F)(F)c1ccccc1-c1nccc(NCc2ccccc2)n1 | inconclusive: 56.2 µM [inhibitor, partial curve, poor fit] | –

# (more compounds)

Compound,Potency,"activity change, negative = inhibition"
O=C(NCCCN1CCOCC1)c1ccc2c(c1)N(Cc1cccc(F)c1)C(=O)c1ccccc1S2,"inconclusive: 70.8 µM [inhibitor, partial curve, poor fit]",–
CCCOc1ccccc1NC(=O)/C=C/C(N)=O,–,inactive: -19.1%
CN(Cc1cccc(Cl)c1)C(=O)C1CSC2(C)CCC(=O)N12 (centres undefined),–,inactive: -10.2%
CCOc1cccc(C=Nc2cc(C)cc(C)c2O)c1O,"inconclusive: 31.6 µM [inhibitor, partial curve, poor fit]",–
Cc1ccc(C(=O)CNc2ccc(Cl)cc2)cc1,"inconclusive: 15.8 µM [inhibitor, full curve]",–
COc1ccc(-c2nc3c(s2)CN(S(C)(=O)=O)CC3)cc1OC,"inconclusive: 39.8 µM [inhibitor, single point]",–
CC(C)c1cc(N2CCN(C)CC2)n2c(nc3ccccc32)c1C#N,"inconclusive: 100 µM [inhibitor, single point]",–
COc1ccc([C@H]2N[C@]3(CCCN(Cc4ccc(Br)cc4)C3=O)[C@H]3C(=O)N(Cc4ccccc4)C(=O)[C@@H]23)cc1,"inconclusive: 6.31 µM [inhibitor, full curve, poor fit]",–
COc1cc(Cl)c(C)cc1NC(=O)CN1C(=O)C2CCCCC2C1=O (centres undefined),"inconclusive: 56.2 µM [inhibitor, single point]",–
Cc1cc(=O)oc2cc(OCC(=O)NCCCn3ccnc3)ccc12,"inactive and inconclusive: 398 nM [inhibitor, full curve, poor fit]",–
CC(=O)N1C=Cc2ccccc2C1CC(=O)Nc1cccc(S(=O)(=O)N2CCOCC2)c1 (centres undefined),"inconclusive: 89.1 µM [inhibitor, single point]",–
Cc1ccc(CN2CCN(Cc3cnn(-c4ccc(Cl)cc4)c3)CC2CCO)o1 (centres undefined),"inconclusive: 126 µM [inhibitor, single point]",–
C#CCNC(=O)C[C@@H]1C[C@@]2(C(=O)OCC)CCCC=C2N(CCCCCCCC)C1=O,"inconclusive: 50.1 µM [inhibitor, partial curve, poor fit]",–
COc1ccc(-c2nn(-c3ccccc3C)c(OC(C)=O)c2-c2ccc(NC(C)=O)cc2)cc1OC,"inconclusive: 3.16 µM [inhibitor, full curve, poor fit]",–
C[C@@H]1CN([C@H](C)CO)C(=O)c2cc(C#C[C@@H](C)O)cnc2O[C@H]1CN(C)C(=O)c1ccc(F)cc1,"inconclusive: 112 µM [inhibitor, single point]",–
CCSc1ccc2cc(OC)ccc2[n+]1CC,"inconclusive: 50.1 µM [inhibitor, partial curve, poor fit]",–
Cc1cc(C(C)(C)C)cc(C)c1Cn1c2[n+](c3ccc(C(F)(F)F)cc31)CCCCC2,active: 35.5 µM,–
Cc1ccc(-c2cc(C(=O)N3CCN(c4ccccc4)CC3)c3ccccc3n2)cc1C,–,inactive: -18.6%
CC1CCN(C(=O)c2ccc(S(=O)(=O)Cc3ccccc3F)c([N+](=O)[O-])c2)CC1,–,inactive: -12.1%

# — PubChem BioAssay AID1671190 (National Center for Advancing Translational Sciences (NCATS), 2021)
